Measured values as given in doi:10.1101/2025.10.13.682235.

The chains behind the UniProt entries cited, without tags or fusion partners.
UniProt P10826: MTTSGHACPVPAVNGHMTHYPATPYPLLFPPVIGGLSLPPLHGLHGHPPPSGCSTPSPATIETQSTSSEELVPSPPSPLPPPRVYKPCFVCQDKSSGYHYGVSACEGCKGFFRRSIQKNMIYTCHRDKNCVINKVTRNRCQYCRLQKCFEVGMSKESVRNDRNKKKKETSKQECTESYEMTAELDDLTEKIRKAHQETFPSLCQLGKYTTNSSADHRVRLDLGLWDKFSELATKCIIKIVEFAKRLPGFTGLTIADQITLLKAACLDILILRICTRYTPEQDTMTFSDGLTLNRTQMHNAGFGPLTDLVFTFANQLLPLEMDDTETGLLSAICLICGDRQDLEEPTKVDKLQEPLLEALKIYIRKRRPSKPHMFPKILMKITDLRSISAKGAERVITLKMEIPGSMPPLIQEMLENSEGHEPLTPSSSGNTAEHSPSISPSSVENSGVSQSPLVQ
UniProt P10276: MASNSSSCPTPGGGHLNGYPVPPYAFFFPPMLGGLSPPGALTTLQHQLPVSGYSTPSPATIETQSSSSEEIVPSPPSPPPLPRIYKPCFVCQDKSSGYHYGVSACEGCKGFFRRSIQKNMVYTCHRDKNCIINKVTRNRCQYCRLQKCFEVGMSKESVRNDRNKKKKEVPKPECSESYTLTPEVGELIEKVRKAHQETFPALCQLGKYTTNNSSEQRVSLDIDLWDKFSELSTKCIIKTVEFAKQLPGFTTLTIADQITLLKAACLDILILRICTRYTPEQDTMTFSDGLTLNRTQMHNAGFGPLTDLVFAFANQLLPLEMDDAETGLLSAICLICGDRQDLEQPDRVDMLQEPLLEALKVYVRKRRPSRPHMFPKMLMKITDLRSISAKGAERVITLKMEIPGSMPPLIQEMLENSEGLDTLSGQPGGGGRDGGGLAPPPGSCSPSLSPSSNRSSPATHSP
UniProt Q92769: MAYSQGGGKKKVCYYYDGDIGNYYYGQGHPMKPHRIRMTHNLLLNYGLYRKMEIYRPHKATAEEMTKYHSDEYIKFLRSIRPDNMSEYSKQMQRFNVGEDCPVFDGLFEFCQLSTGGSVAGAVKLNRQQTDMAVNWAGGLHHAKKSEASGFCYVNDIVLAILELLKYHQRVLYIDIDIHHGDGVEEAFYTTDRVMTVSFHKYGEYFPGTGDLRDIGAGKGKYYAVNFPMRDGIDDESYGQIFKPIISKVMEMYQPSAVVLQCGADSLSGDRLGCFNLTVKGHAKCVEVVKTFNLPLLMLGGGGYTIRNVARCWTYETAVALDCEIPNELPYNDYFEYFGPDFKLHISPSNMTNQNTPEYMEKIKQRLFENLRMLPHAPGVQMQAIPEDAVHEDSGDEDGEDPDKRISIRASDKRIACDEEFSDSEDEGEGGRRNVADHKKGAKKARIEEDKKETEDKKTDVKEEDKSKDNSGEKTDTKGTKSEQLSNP
UniProt Q9Y6Q9: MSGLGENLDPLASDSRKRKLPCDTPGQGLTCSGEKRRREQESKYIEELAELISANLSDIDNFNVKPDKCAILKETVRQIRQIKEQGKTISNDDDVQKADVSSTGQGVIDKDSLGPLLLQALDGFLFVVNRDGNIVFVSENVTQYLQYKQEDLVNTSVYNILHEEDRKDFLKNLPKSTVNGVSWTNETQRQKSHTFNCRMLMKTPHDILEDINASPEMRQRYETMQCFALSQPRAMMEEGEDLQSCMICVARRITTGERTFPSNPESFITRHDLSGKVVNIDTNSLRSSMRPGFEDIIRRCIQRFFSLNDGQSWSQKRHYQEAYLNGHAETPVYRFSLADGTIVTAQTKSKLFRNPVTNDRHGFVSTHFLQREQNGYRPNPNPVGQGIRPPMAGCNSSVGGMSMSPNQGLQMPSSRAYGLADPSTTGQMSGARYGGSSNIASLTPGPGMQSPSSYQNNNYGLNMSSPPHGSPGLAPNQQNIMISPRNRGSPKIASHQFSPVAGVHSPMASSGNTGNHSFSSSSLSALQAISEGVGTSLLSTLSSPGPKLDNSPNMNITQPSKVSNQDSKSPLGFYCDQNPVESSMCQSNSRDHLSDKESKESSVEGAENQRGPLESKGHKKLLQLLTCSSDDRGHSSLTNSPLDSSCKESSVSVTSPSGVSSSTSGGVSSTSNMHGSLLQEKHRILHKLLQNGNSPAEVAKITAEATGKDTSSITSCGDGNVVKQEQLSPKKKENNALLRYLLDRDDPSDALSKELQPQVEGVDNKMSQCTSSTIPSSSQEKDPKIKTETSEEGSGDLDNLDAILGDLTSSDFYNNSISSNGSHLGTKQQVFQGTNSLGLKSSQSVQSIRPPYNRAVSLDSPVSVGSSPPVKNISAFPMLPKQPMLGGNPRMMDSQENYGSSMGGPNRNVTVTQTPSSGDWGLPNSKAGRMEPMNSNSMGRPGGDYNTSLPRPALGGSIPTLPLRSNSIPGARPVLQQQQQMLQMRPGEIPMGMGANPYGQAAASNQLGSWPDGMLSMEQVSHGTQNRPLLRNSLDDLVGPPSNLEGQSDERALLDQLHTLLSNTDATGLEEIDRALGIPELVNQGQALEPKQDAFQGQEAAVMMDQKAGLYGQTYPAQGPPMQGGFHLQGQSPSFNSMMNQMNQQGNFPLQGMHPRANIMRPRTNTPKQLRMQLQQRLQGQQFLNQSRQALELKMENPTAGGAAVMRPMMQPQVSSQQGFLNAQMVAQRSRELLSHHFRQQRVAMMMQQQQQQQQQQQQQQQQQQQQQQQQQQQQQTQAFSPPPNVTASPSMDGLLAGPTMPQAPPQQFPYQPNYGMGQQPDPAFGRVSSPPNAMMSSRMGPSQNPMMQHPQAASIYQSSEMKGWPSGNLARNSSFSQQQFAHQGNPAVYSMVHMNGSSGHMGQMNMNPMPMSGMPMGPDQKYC
UniProt P28702: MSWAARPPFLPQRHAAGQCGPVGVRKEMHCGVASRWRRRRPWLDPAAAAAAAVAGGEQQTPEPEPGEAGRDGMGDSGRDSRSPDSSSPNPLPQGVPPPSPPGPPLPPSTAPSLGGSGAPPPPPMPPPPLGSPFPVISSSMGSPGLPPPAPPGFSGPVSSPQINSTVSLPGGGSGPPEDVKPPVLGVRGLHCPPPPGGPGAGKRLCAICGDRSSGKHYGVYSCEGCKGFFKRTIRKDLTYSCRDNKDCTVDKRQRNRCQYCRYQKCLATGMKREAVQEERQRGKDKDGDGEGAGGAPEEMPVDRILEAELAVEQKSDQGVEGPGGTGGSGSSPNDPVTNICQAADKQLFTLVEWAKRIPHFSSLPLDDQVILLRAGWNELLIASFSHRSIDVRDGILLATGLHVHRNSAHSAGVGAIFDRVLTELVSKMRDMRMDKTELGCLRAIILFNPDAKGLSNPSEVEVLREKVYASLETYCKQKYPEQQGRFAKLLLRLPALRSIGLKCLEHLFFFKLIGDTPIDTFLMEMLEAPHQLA
UniProt Q09472: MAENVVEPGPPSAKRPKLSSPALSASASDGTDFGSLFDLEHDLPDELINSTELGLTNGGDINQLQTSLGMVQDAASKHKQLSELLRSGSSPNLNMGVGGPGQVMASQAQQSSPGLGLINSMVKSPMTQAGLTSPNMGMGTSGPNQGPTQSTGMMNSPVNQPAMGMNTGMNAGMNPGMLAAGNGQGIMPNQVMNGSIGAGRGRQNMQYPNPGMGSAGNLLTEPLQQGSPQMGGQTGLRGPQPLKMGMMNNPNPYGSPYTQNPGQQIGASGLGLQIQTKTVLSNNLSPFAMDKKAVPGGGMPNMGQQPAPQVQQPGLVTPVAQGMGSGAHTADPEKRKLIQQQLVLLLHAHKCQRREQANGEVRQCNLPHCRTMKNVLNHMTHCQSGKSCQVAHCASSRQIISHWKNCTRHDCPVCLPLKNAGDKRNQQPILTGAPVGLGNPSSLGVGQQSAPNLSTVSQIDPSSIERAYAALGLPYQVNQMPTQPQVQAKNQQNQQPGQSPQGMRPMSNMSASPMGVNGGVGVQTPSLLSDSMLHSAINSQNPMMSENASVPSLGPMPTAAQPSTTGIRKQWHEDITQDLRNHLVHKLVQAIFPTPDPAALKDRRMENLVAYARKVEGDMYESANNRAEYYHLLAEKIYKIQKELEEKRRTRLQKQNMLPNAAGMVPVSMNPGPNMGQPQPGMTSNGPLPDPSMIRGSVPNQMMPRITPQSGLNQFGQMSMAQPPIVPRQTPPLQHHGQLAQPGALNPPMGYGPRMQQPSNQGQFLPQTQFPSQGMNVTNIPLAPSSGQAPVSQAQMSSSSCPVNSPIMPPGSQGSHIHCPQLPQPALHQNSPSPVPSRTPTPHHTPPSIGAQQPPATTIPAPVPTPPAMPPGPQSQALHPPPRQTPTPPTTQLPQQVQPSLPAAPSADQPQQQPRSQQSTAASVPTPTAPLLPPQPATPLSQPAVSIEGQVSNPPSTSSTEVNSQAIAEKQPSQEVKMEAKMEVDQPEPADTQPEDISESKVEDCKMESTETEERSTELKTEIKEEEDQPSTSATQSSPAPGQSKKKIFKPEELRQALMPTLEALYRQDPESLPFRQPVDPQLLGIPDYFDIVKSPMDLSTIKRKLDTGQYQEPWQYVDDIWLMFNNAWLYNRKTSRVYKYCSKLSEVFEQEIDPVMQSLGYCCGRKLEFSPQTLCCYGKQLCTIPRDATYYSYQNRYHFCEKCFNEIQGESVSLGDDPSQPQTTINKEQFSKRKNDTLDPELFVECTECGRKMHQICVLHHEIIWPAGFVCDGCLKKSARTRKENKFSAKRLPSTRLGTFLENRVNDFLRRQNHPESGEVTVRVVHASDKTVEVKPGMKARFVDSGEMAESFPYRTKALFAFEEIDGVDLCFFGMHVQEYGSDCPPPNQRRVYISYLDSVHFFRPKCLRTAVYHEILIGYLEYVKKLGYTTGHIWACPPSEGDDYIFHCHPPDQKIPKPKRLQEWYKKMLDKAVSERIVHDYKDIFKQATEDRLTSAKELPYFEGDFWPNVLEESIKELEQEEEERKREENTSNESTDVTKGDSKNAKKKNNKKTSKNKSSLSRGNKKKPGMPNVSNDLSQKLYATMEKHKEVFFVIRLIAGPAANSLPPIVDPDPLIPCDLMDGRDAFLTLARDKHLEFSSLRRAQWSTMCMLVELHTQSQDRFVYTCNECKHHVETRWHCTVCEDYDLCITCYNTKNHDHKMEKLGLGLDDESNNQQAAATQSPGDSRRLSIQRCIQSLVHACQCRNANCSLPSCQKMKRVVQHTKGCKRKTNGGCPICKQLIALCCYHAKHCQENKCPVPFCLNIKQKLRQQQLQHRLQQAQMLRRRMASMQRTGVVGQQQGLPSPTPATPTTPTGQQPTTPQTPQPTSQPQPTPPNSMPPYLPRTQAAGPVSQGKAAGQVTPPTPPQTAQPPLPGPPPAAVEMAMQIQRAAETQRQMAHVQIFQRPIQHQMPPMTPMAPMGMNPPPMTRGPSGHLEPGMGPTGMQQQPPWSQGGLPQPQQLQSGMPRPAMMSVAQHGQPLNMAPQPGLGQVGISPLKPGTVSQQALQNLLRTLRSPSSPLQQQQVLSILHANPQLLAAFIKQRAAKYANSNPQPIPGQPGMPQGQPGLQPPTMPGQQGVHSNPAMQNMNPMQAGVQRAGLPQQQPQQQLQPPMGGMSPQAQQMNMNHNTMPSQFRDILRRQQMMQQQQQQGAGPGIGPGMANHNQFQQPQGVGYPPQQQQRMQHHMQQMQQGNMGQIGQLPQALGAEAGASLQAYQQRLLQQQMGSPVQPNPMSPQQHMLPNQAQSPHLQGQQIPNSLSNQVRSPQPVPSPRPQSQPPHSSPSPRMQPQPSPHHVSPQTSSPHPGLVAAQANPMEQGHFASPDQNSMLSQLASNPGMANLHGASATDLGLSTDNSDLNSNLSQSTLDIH

What was measured:
[1] = target: Flag-tagged retinoic acid receptor beta (Flag-RARβ) (UniProt P10826); assay: affinity purification with mass spectrometry; Flag-RARα, Flag-RARβ or Flag-mock purified from extracts of stable HEK293T cells on anti-FLAG M2 affinity gel (overnight, 4 °C), washes with BC500 (0.5 M KCl) and BC150, elution with FLAG peptide; eluates analysed by LC-MS/MS against mock, n=2
[2] = target: Flag-tagged retinoic acid receptor alpha (Flag-RARα) (UniProt P10276); assay: as above

Histone deacetylase HDAC2, endogenous in HEK293T (from UniProt Q92769 1-488) (enzyme)
binding [1]: binds
binding [2]: binds

NCOA3, endogenous in HEK293T (from UniProt Q9Y6Q9 1-1424)
binding [1]: binds

NCOA2, endogenous in HEK293T (from UniProt Q15596 1-1464)
binding [1]: binds

RXRβ, endogenous in HEK293T (from UniProt P28702 1-533) (receptor)
binding [1]: binds
binding [2]: binds

Transcriptional coactivator P300, endogenous in HEK293T (from UniProt Q09472 1-2414) (enzyme)
binding [1]: binds
binding [2]: binds

No constants are given. Whether binding was seen depends on the method and setting. In cells and extracts the contact can be indirect. These calls come from enrichment with a bait or labelling near it, and not all partners need be listed.
